# Values joined by “and” are separate entries in the source; they are usually repeats but may differ in a detail not shown here. Identical values can stand only once. Among all 390,000 compounds or so, about 610 (0.16%) were called active. Inconclusive means that the source gave no clear call. Such entries were picked first, then a sample of the others. Calls come from the whole dose curve; as a rule, active = well fitted inhibition curve with a large enough effect; inconclusive = small, poorly fitted or top-dose-only effect, or effect the other way, or another doubt; inactive = no such curve, though single readings can be large or run the other way. A potency beside an inconclusive call is a rough fit, not a confirmed value.
# Assay: Nrf2 qHTS screen for inhibitors: counterscreen for cytotoxicity
# Details: A549 ARE-Fluc cells, CellTiter-Fluor viability, 18-24 h; series mostly up to 46 µM
# Procedure, shortened: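 A549 ARE-Fluc cells in 5% FBS OPTI-MEM, 5000 cells/well, rested 2 h then exposed to compounds in concentration-response for 18-24 h at 37 °C. Viability by CellTiter-Fluor fluorescence (Ex 405/Em 525) after 30 min; luciferase luminescence (BugLite, 15 min, RT) read afterwards.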
# Potency is the fitted concentration of half-maximal effect.
row,Compound,Potency
1,CCN(CC)CCn1c(=N)n(CC(O)COc2ccccc2)c2ccccc21 (configuration not stated),"inconclusive: 29.1 µM [falling, partial curve, poor fit]"
2,CC1=C(C(=O)Nc2ccc(C)cc2C)C(CC(C)C)n2nc(SCc3ccccc3C)nc2N1 (configuration not stated),inactive
3,CCN(CC)CC(O)c1ccc2ccc3ccc(O)cc3c2c1 (configuration not stated),"inconclusive: 23.1 µM [falling, partial curve, poor fit]"
4,c1ccc2sc(Nc3nc4cc5c(cc4s3)OCO5)nc2c1,"inconclusive: 25.9 µM [activator, partial curve, poor fit]"
5,CCOC(=O)CNC(c1ccccc1)c1cc(Br)ccc1NC(=O)c1ccc(Cl)cc1 (configuration not stated),inactive
6,COc1ccc(/C=C2\CN(Cc3ccccc3)C/C(=C\c3ccc(OC)c(O)c3)C2=O)cc1O,"inconclusive: 18.4 µM [falling, single point]"
7,CCCOc1ccc(-c2nonc2NC(=O)COc2ccc(C)cc2)cc1OCCC,inactive
8,NC(=O)CC(NC(=O)Cc1ccc(Br)cc1)c1ccc(N2CCC(Cc3ccccc3)CC2)c([N+](=O)[O-])c1 (configuration not stated),"inconclusive: 23.1 µM [falling, single point]"
9,O=C(CCC(=O)N1CCN(c2ccccc2F)CC1)c1ccc(F)cc1,inactive
10,Cc1ccccc1OCC(=O)Nc1nnc(C2CC2)s1,inactive
11,O=S(=O)(O)c1cc(O)c2c(O)c(N=Nc3cc(Cl)ccc3O)c(S(=O)(=O)O)cc2c1,active: 14.6 µM
12,Cc1cccc(C(C)C)c1NC(=O)C1CN(S(=O)(=O)c2ccccc2)CCN1S(=O)(=O)c1ccccc1 (configuration not stated),"inconclusive: 32.6 µM [falling, partial curve, poor fit]"
13,OC1(c2cccc(C(F)(F)F)c2)CCN(c2ncnc3c2[nH]c2ccc(F)cc23)CC1,active: 20.6 µM
14,COc1ccccc1NC(=S)NCCSc1ccc(C)cc1,inactive
15,COc1ccc(NC(=O)C#Cc2ccccc2)cc1,inactive
16,CN1C2C=C3C(C#N)=C(N)C(C#N)(C#N)C(c4ccc(Br)cc4)C3C1CC2 (configuration not stated),"inconclusive: 4.11 µM [activator, single point]"
17,CCN(CC)S(=O)(=O)c1cc(NC(=O)CSc2nc3c(cc2C#N)C(=O)CC(C)(C)C3)ccc1C,"inconclusive: 20.6 µM [falling, single point]"
18,CCc1ccc(NC(=O)C2CCN(S(=O)(=O)c3cccs3)CC2)cc1,inactive
19,COc1ccc(NC2=C(NCCO)C(=O)c3ccccc3C2=O)cc1,"inconclusive: 20.6 µM [falling, partial curve, poor fit]"
20,CCOC(=O)c1c(C=O)c(C)n(Cc2ccc(Cl)cc2)c1C,"inconclusive: 20.6 µM [falling, partial curve, poor fit]"
21,O=C(CSc1nnc(SCc2cccc3ccccc23)s1)c1ccc2c(c1)OCO2,"inconclusive: 13 µM [activator, partial curve, poor fit]"
22,CC1(C)CC(=O)c2cc(OCC(=O)N3CCOCC3)ccc2O1,inactive
23,Cc1cc2c(n1-c1ccc(C(=O)NCC(C)c3ccccc3)cc1)CCCC2 (configuration not stated),inactive

row,Compound,Potency
1,Cc1cccc(Nc2nc(Nc3cccc(C)c3)nc(N3CCOCC3)n2)c1,"inconclusive: 1.64 µM [activator, full curve]"
2,CS(=O)(=O)Nc1cccc(-c2cn3c(n2)SCC3)c1,"inconclusive: 25.9 µM [falling, single point]"
3,CCN(CCCNC(=O)c1ccc(Sc2ccc(C)cc2)c(NC(C)=O)c1)c1cccc(C)c1,"inconclusive: 16.4 µM [falling, partial curve, poor fit]"
4,N=c1c(C(=O)NCC2CCCO2)cc2c(=O)n3ccccc3nc2n1C1CCCC1 (configuration not stated),"inconclusive: 20.6 µM [activator, partial curve, poor fit]"
5,CCn1c(/C=C/c2ccc([N+](=O)[O-])o2)nc2ccccc2c1=O,"inconclusive: 16.4 µM [falling, single point]"
6,CC(C)NC(=S)N/N=C/C1=CCC2CC1C2(C)C (configuration not stated),"inconclusive: 20.6 µM [activator, partial curve, poor fit]"
7,COCCCn1c(=N)c(C(=O)NC2CCCCC2)cc2c(=O)n3ccccc3nc21,"inconclusive: 16.4 µM [activator, single point] and inconclusive: 14.6 µM [activator, partial curve]"
8,COC(=O)Nc1ccc(C)c2nsnc12,"inconclusive: 14.6 µM [activator, partial curve, poor fit]"
9,O=[N+]([O-])c1cc(S(=O)(=O)Nc2cccc(Cl)c2)ccc1N=Nc1c(O)[nH]c2ccccc12,"inconclusive: 13 µM [falling, partial curve]"
10,Cc1ccc(S(=O)(=O)NC(=O)COc2ccc(Cl)cc2Cl)cc1,"inconclusive: 5.8 µM [activator, single point]"
11,COc1ccc(NC(=O)c2c(N)no[n+]2[O-])cc1,"inconclusive: 3.66 µM [falling, partial curve]"
12,COC(=O)c1ccc(NC(=S)NC2CC(C)(C)NC(C)(C)C2)cc1,"inconclusive: 14.6 µM [activator, partial curve, poor fit]"
13,COC(=O)c1cc2sc(C)cc2n1Cc1ccc(F)cc1Cl,inactive
14,O=C1CC(c2ccccc2)=NN1c1ccc([N+](=O)[O-])cc1,"inconclusive: 18.4 µM [falling, single point]"
15,CN(C)C(CNC(=O)CCCc1c[nH]c2ccccc12)c1ccco1 (configuration not stated),inactive
16,CC(C)(C)S(=O)(=O)/C(C#N)=N/Nc1ccc(C#N)cc1,"inconclusive: 14.6 µM [falling, single point]"
17,CCN(CC)c1ccc(-c2nc3cnccn3c2NC2CCCC2)cc1,"inconclusive: 5.8 µM [falling, single point]"
18,O=C(NC1(C(F)(F)F)NC(=O)N(CCc2ccccc2)C1=O)c1ccccc1F (configuration not stated),inactive
19,Cc1cc(/C=C2\SC(=S)NC2=O)c(C)n1C1CC1,"inconclusive: 23.1 µM [falling, partial curve, poor fit]"
20,COC(=O)c1c(C)oc2c1cc(NS(=O)(=O)c1c(C)cc(C)cc1C)c1ccccc12,inactive
21,COCCCNC(=O)C(=O)NCCCOC(C)C,"inconclusive: 5.17 µM [falling, single point]"
22,COc1ccc(-c2csc(NC(=O)CC(C)C)n2)cc1,inactive
23,CCOC(=O)C1=C(c2ccccc2)OC(N)=C(C#N)C1c1ccc(Cl)s1 (configuration not stated),"inconclusive: 29.1 µM [falling, partial curve, poor fit]"

row,Compound,Potency
1,Fc1ccccc1CNc1nc(-c2cccnc2)nc2ccccc12,"inconclusive: 25.9 µM [falling, single point]"
2,Cc1ccc(CNC(=O)c2c[nH]c3ccc(S(=O)(=O)Nc4ccc(C(C)C)cc4)cc3c2=O)cc1,inactive
3,CCCNc1nc(-c2ccccc2)c(C(=O)OCC)cc1C#N,"inconclusive: 18.4 µM [falling, partial curve]"
4,c1ccc2c(c1)Cn1c-2nc2ccccc21,inactive
5,Cc1ccc(NC(=O)COc2ccc(CCO)cc2-n2nc3ccccc3n2)cc1C,"inconclusive: 29.1 µM [falling, partial curve, poor fit]"
6,COc1cc(/C=C2\SC(=S)N(Nc3ncc(C(F)(F)F)cc3Cl)C2=O)ccc1O,"inconclusive: 23.1 µM [falling, single point]"
7,O=C(CSc1nccc(=O)[nH]1)Nc1cc(C(F)(F)F)ccc1N1CCOCC1,inactive
8,Cc1ccc(C(=O)Nc2ccc3c(c2)N(C)C(=O)c2ccccc2S3)cc1F,"inconclusive: 9.2 µM [falling, partial curve]"
9,CC(c1ccccc1C(O)c1ccccc1)N(C)C (configuration not stated),"inconclusive: 5.8 µM [activator, partial curve, poor fit]"
10,OC1CCCN(c2c3c(nc4cc(-c5cccc(F)c5)nn24)CCCC3)C1 (configuration not stated),"inconclusive: 29.1 µM [falling, partial curve, poor fit]"
11,Cc1nonc1C(=O)N/N=C/c1ccc(O)cc1O,"inconclusive: 20.6 µM [falling, partial curve]"
12,O=C1OC(c2ccccc2)(c2ccccc2)N2CCN(C(=O)NCc3ccc(F)cc3)CC12 (configuration not stated),"inconclusive: 23.1 µM [falling, partial curve, poor fit]"
13,Cc1c(Cl)cccc1NC(=S)NCCc1ccc(C(F)(F)F)cc1,"inconclusive: 29.1 µM [falling, single point]"
14,CN1CCC(=C2c3ccccc3C=Cc3ccccc32)CC1,"inconclusive: 29.1 µM [falling, single point]"
15,O/N=C/c1cc(Br)cs1,inactive
16,O=C(NCC1CCN(Cc2cccc(Cl)c2)CC1)Nc1ccc(Cl)cc1,"inconclusive: 29.1 µM [falling, partial curve, poor fit]"
17,COc1ccccc1N1CCN(C(=O)C2c3ccccc3Oc3ccccc32)CC1,"inconclusive: 4.61 µM [falling, partial curve]"
18,Cc1ccc(C2NC(c3ccc(C)cc3)C(C)C(=O)C2C)cc1 (configuration not stated),"inconclusive: 10.3 µM [activator, partial curve]"
19,O=C(c1c(Cl)nc2sccn12)N1CCN(c2cccc(Cl)c2)CC1,"inconclusive: 6.51 µM [falling, partial curve]"
20,CCc1ccc2[nH]c(=O)c(C3C(C#N)=C(N)Oc4c3ccc3cccnc43)cc2c1 (configuration not stated),"inconclusive: 14.6 µM [falling, partial curve, poor fit]"
21,CC1Cc2ccccc2N1C(=O)CN1CCC(n2nnc3cc(C(F)(F)F)ccc32)CC1 (configuration not stated),"inconclusive: 32.6 µM [falling, partial curve, poor fit]"
